# Measurements published in publication PMC7819943, “Rice protein-binding microarrays: a tool to detect cis-acting elements near promoter regions in rice”.
# Protein sequences, listed by entry. Tags and fused reporters are not part of them.
# UniProt Q0JBA9, entry or part of it: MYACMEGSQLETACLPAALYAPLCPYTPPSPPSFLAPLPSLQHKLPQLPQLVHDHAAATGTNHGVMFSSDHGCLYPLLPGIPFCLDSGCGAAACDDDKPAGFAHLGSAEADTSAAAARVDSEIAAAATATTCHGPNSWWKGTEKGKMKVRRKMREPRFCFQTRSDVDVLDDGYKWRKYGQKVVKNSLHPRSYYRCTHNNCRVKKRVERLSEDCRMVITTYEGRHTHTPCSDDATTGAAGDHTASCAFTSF
# This is one part of the list.
# Target: OsWRKY34 (Oryza sativa, UniProt Q0JBA9 1-250)
# Experiment: protein-binding microarray (RPBM); PBS, 2% BSA, 51.3 ng/ul salmon testes DNA, 50 uM zinc acetate, 200 nM TF, 25 C, 1 h; high values mean tight binding
# Conditions: protein: recombinant; tags: N-terminal polyhistidine and DsRed monomer fusion (pET32a); label: CyDye5-dUTP incorporated in the synthesized complementary strand; 3' TTTTT single-stranded linker to array surface; dsDNA, one strand shown
# Outline: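 Transcription factors, each fused N-terminally to a polyhistidine tag and DsRed, were expressed in E. coli BL21-CodonPlus and purified on Ni–NTA. A custom Agilent array was made double-stranded by primer extension with Cy5-dUTP and blocked with 2% BSA. It was incubated with 200 nM protein in PBS, 2% BSA, salmon testes DNA and 50 µM zinc acetate at 25 °C for 1 h, then washed. The binding signal is per-feature fluorescence intensity (arbitrary units) read on an Axon 4000B scanner.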
row,Sequence,binding signal
1,CAATGATCCCCGCACTCTTGCTCCTCGCTTCCTTGTCCATCGGAGTCACCTAGTGCAG,8450 fluorescence intensity (a.u.)
2,GGTGAGGTCGGAGGGAGGGAGGGAGGAAGCAGGGATCGGCCGGAGTCACCTAGTGCAG,8900 fluorescence intensity (a.u.)
3,TCTGTTGCTTTTCCAGTTTAGTACCATTGATCATATCTATCGGAGTCACCTAGTGCAG,13200 fluorescence intensity (a.u.)
4,CTTTCTCTTCCTTTCCCCTGTCCTTGCGCCGCCGCCGCCTCGGAGTCACCTAGTGCAG,8640 fluorescence intensity (a.u.)
5,TTTTCCCTCATGTCACGTCGCATTAGTCTGATTTTGAATTCGGAGTCACCTAGTGCAG,8980 fluorescence intensity (a.u.)
6,GCCCACCAACACCGCCTCCGTATCCCGTATCCGTCTCCGACGGAGTCACCTAGTGCAG,8800 fluorescence intensity (a.u.)
7,CACTCTGTGTGTGTTCCCTCCTTGTGCTGAGCCGCGGCCGCGGAGTCACCTAGTGCAG,8410 fluorescence intensity (a.u.)
8,CACCTGACTCATCGATCCACTACTGCCGCCGCCGCCCATGCGGAGTCACCTAGTGCAG,8180 fluorescence intensity (a.u.)
9,GGTATAGTTTTATACTGTTTATATCCAACGTTTGACCGTTCGGAGTCACCTAGTGCAG,10200 fluorescence intensity (a.u.)
10,ATCATCCGTGTTTGAGTCGGTTTTTAAGTTCGTTCGCTTTCGGAGTCACCTAGTGCAG,8810 fluorescence intensity (a.u.)
11,ACAATTTCTTTCATGTCCCTAAACTCTCGACCCTGCCGATCGGAGTCACCTAGTGCAG,8910 fluorescence intensity (a.u.)
12,TCTGAACCCCAGCATCTTGGCTCTGAACTCCTCGTTCGTCCGGAGTCACCTAGTGCAG,8490 fluorescence intensity (a.u.)
13,CGGCCCCTACTACCACGGCGCCGCCGCGCTCCGCGCCATGCGGAGTCACCTAGTGCAG,8140 fluorescence intensity (a.u.)
14,CCATCACGTTCACGGTCGCATCAGATCACATCACCACATACGGAGTCACCTAGTGCAG,8200 fluorescence intensity (a.u.)
15,GCCACCCACGCCGCGCGCTCTCTCGTCGCATCGGCAGCAGCGGAGTCACCTAGTGCAG,8540 fluorescence intensity (a.u.)
16,TTGGTCGACATGGGTGGGAGGCGGATCGATGACGTAGAATCGGAGTCACCTAGTGCAG,12100 fluorescence intensity (a.u.)
17,TGCCTCTGTTACCACACTCTCACCTTGCTTAATAAATGCTCGGAGTCACCTAGTGCAG,9800 fluorescence intensity (a.u.)
18,GCAGCAAGTTGCCTCTCGCCGACCTCTTGTTTCTTTCGTCCGGAGTCACCTAGTGCAG,11100 fluorescence intensity (a.u.)
19,GGTGTGTGGTTTTTTTTTCTTAAACTCCAAATCTCTTTTTCGGAGTCACCTAGTGCAG,8340 fluorescence intensity (a.u.)
20,TGACAGATTATTTGTGGCTTATTCTTGGTTTTTTTTTATGCGGAGTCACCTAGTGCAG,8850 fluorescence intensity (a.u.)
21,TGACATTCTGTTTTGCTTTTCCTGCTGATATCAACATGTTCGGAGTCACCTAGTGCAG,9090 fluorescence intensity (a.u.)
22,CACCTCATCATTTAGTACTACTATGTATTTCCTCCGTCCCCGGAGTCACCTAGTGCAG,8580 fluorescence intensity (a.u.)
23,TATCTCTCTTTCTCTTTCTTCGTGTCGTCGACTTCGCATGCGGAGTCACCTAGTGCAG,8320 fluorescence intensity (a.u.)
24,TCTCACCAGCTATCTTCTCACCGGCTGCTTCTCAGAATATCGGAGTCACCTAGTGCAG,10500 fluorescence intensity (a.u.)
25,CCTCTCCTCTCTCGCCGCCCACCTCGCCGTCGCCGCCGCCCGGAGTCACCTAGTGCAG,10200 fluorescence intensity (a.u.)
26,GTTTATATTCATGATTTTTGATTTTTACTCTTTGCTTCACCGGAGTCACCTAGTGCAG,10900 fluorescence intensity (a.u.)
27,TTGTATGTACGGCCACTTATTAATTACCTCAAGATTCATCCGGAGTCACCTAGTGCAG,8440 fluorescence intensity (a.u.)

row,Sequence,binding signal
1,GCCTCCGTCGCCGTCGCCGCTCGCACTGCTACCCGTCGTCCGGAGTCACCTAGTGCAG,8490 fluorescence intensity (a.u.)
2,CTTTCTAACTGAACTCTCCTGCTACATCAATACATATAAGCGGAGTCACCTAGTGCAG,8530 fluorescence intensity (a.u.)
3,GTAGAGATGGGCTGGGCTGGGGTGAGGAAAGAAAGAGGAGCGGAGTCACCTAGTGCAG,9680 fluorescence intensity (a.u.)
4,CTCATCCGGCCTGACCAGCCTCTACACACAGCCACGTTGACGGAGTCACCTAGTGCAG,10500 fluorescence intensity (a.u.)
5,ACGTATTCACGGCTTCATGCCATGCCACAGTGATATCTATCGGAGTCACCTAGTGCAG,8060 fluorescence intensity (a.u.)
6,TCCAACTTCCAACCCCAATGCCCACGAGCACTCGCCACGTCGGAGTCACCTAGTGCAG,8320 fluorescence intensity (a.u.)
7,AATTAAATCAATCTTTGTTCCGGCTGTGTCTTGTTCCCAACGGAGTCACCTAGTGCAG,8390 fluorescence intensity (a.u.)
8,ATCTCATCCTTCCCCAACCTTTCTCTTCTCCTTGAACACACGGAGTCACCTAGTGCAG,11100 fluorescence intensity (a.u.)
9,CCTTTGTCGTCCTGCAACCATCCAACCCAATCTTCATTTTCGGAGTCACCTAGTGCAG,8170 fluorescence intensity (a.u.)
10,TTGCATTTTGTCGATCCCAATTCCCAACTGCTCACTGATTCGGAGTCACCTAGTGCAG,9280 fluorescence intensity (a.u.)
11,AACTACATCTTACAATTAACACTACTGTCTATGTCTCAATCGGAGTCACCTAGTGCAG,11500 fluorescence intensity (a.u.)
12,CCTCGTGCTCTTCCCATCCGCGACTCCAAAATTCCCGTCCCGGAGTCACCTAGTGCAG,8590 fluorescence intensity (a.u.)
13,ATATAACCGGCTACTGTATTCCTTTTTTTGATTTTTCTTTCGGAGTCACCTAGTGCAG,9450 fluorescence intensity (a.u.)
14,GTTGACCTGTGTGTGTCTATATCCTCATCTCCCAACTTCCCGGAGTCACCTAGTGCAG,8910 fluorescence intensity (a.u.)
15,GACGTTCGATTTTTTCTGCTGCGGGGATGGGTACGGGGTGCGGAGTCACCTAGTGCAG,14800 fluorescence intensity (a.u.)
16,GCCTTCCTTTTGGTCGTCGTCGTCTTCGTACGTTGGCCTCCGGAGTCACCTAGTGCAG,9500 fluorescence intensity (a.u.)
17,TGTCTCATTTTTCTATATGTTGTTTGGTGTGCCTTGAGAACGGAGTCACCTAGTGCAG,9110 fluorescence intensity (a.u.)
18,ATTCCTTATATGCCATTGAAATTTGGTCTGGTCCTTGATACGGAGTCACCTAGTGCAG,9660 fluorescence intensity (a.u.)
19,AGTGTGGTGGCAATTTTTCAAAAAAAAAACCCTCCGTTGCCGGAGTCACCTAGTGCAG,8070 fluorescence intensity (a.u.)
20,CAATTCGGCCATCCTTGATCACATAAACACAAGAAAAACACGGAGTCACCTAGTGCAG,8620 fluorescence intensity (a.u.)
21,AGGCCCATTTAAGCCCACGTTTCTCTTGTCCTCAACCCCACGGAGTCACCTAGTGCAG,8980 fluorescence intensity (a.u.)
22,TTGTTGTAATTGATATATGGGTCTACGGTTTTTATTATTTCGGAGTCACCTAGTGCAG,10400 fluorescence intensity (a.u.)
23,AATTTTCTTGTCCTTGTACTCCCCGATTTCATATTCTAAACGGAGTCACCTAGTGCAG,10100 fluorescence intensity (a.u.)
24,TTGGTTAGTTGCCACTCTCTCTCGCCGTGACCCTTTTTTACGGAGTCACCTAGTGCAG,20600 fluorescence intensity (a.u.)
25,AATTTTTTTCATTAGTGACATGGTTCAAATCTTAACATCCCGGAGTCACCTAGTGCAG,8390 fluorescence intensity (a.u.)
26,CACTCTCCCGTGCGCTTTCTTGATCTCGTTGAATTCCGCGCGGAGTCACCTAGTGCAG,15000 fluorescence intensity (a.u.)
27,TGCCTGCATGCCGCCTCTCGCATGTATTGTGTTATTTTGGCGGAGTCACCTAGTGCAG,8990 fluorescence intensity (a.u.)

# Part of the list above, bar-delimited:
row | Sequence | binding signal
1 | GCCTCCGTCGCCGTCGCCGCTCGCACTGCTACCCGTCGTCCGGAGTCACCTAGTGCAG | 8490 fluorescence intensity (a.u.)
2 | CTTTCTAACTGAACTCTCCTGCTACATCAATACATATAAGCGGAGTCACCTAGTGCAG | 8530 fluorescence intensity (a.u.)
3 | GTAGAGATGGGCTGGGCTGGGGTGAGGAAAGAAAGAGGAGCGGAGTCACCTAGTGCAG | 9680 fluorescence intensity (a.u.)
4 | CTCATCCGGCCTGACCAGCCTCTACACACAGCCACGTTGACGGAGTCACCTAGTGCAG | 10500 fluorescence intensity (a.u.)
